PubChem BioAssay AID1259425, University of Nebraska Medical Center | 2018

- Purpose: 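Find knockdowns that reproduce the gene expression pattern seen when KSR1 is lost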 (primary screen)
- Cell system: HCT116 human colon cancer cells
- Knock-down reagent: siRNA pool against human genes, 50 nM siRNA
- Measurement: 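mRNA of six signature genes measured together by branched-DNA assay after 50 nM siRNA pool, blank removed, divided by geometric mean of two housekeeping genes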
- Scale: BNIP3L mRNA: higher = more BNIP3L transcript after knockdown
Shown is a random part of about 14,000 reagents. Some reagents were tested in more than one well and are listed for each. Further read-outs or replicates are left out here. Not given: the time to read-out.

BNIP3L mRNA, set 1, by gene and reagent
POLQ (DNA polymerase theta): SID363997386 0.118
NUPR1 (nuclear protein 1, transcriptional regulator): SID363998273 0.219
TCF12 (transcription factor 12): SID363994338 0.0809
SFTPA1 (surfactant protein A1): SID363996317 0.112
ABCC10 (ATP binding cassette subfamily C member 10): SID364004381 0.108
HS2ST1 (heparan sulfate 2-O-sulfotransferase 1): SID363998184 0.121
SLC7A3: SID364004183 0.12
UEVLD (UEV and lactate/malate dehyrogenase domains): SID364000968 0.168
HBD (hemoglobin subunit delta): SID363991842 0.0948
KRT82 (keratin 82): SID364004290 0.0449
PSG9 (pregnancy specific beta-1-glycoprotein 9): SID363993941 0.177
BTN2A1 (butyrophilin subfamily 2 member A1): SID363997780 0.182; SID363997780 0.116
TUBB2A (tubulin beta 2A class IIa): SID363992366 0.0523
CFAP74 (cilia and flagella associated protein 74): SID364005485 0.106
RNPEPL1 (arginyl aminopeptidase like 1): SID364000893 0.0997
SYNGR1 (synaptogyrin 1): SID363995670 0.0984
CEP57 (centrosomal protein 57): SID363999029 0.109
AGFG2 (ArfGAP with FG repeats 2): SID363996920 0.476
ALOX12 (arachidonate 12-lipoxygenase, 12S type): SID363991996 0.0843
IDH3B: SID363997656 0.0468
SH2B1 (SH2B adaptor protein 1): SID363999536 0.235
KCNQ2 (potassium voltage-gated channel subfamily Q member 2): SID363995493 0.191
MOB3B (MOB kinase activator 3B): SID364003036 0.059
NPBWR2 (neuropeptides B and W receptor 2): SID363996205 0.178
H4C4 (H4 clustered histone 4): SID363994622 0.0756
AFF3 (ALF transcription elongation factor 3): SID363993483 0.0986
CSNK1A1 (casein kinase 1 alpha 1): SID363993105 0.0241
FAM204A (family with sequence similarity 204 member A): SID364002299 0.25
STAG1 (STAG1 cohesin complex component): SID363996736 0.0705
COL27A1 (collagen type XXVII alpha 1 chain): SID364004257 0.13
ISL2 (ISL LIM homeobox 2): SID364004674 0.0444
TTYH3 (tweety family member 3): SID364005310 0.139
ITGA9 (integrin subunit alpha 9): SID363993408 0.0366
ATP2B2 (ATPase plasma membrane Ca2+ transporting 2): SID363992906 0.0861
ODF2 (outer dense fiber of sperm tails 2): SID363993711 0.145
FEZ2 (fasciculation and elongation protein zeta 2): SID363996038 0.0767
CYP27B1 (cytochrome P450 family 27 subfamily B member 1): SID363992075 0.0756
TMCO1 (transmembrane and coiled-coil domains 1): SID364001338 0.104
RPF2 (ribosome production factor 2 homolog): SID364003826 0.187
FTL (ferritin light chain): SID363991482 0.108
TP53BP2 (tumor protein p53 binding protein 2): SID363996332 0.0558
TCF4 (transcription factor 4): SID363994332 0.0873
KIAA1549: SID364005479 0.184
ALKBH4 (alkB homolog 4, lysine demethylase): SID364000397 0.0743
TFEB (transcription factor EB): SID363997863 0.101
ERCC6 (ERCC excision repair 6, chromatin remodeling factor): SID363991460 0.209
MUC7 (mucin 7, secreted): SID364004704 0.195
ZNF395 (zinc finger protein 395): SID364001159 0.193
MAFG (MAF bZIP transcription factor G): SID363993542 0.117; SID364004133 0.068

Not a retest: an excerpt of the list.
BNIP3L mRNA, set 1, by gene and reagent
SYNGR1 (synaptogyrin 1): SID363995670 0.0984
CEP57 (centrosomal protein 57): SID363999029 0.109
